Test system: Abl peptide
Assay: Microarray detection of Abl peptide labeled with ATP-γ-S or ATP by Abl Protein Tyrosine Kinase

For Rhod-5F [Compound 2], the “Sensitivity of detection after kinase reaction” value (control reaction using ATP) was 0.325 pg and the “Sensitivity of detection after kinase reaction” value (peptide labeled using ATP-γ-S (phosphorothioate)) was 2.6 pg.

Source: patent US7445894B2, “Compositions and methods for detection and isolation of phosphorylated molecules” (priority 2002, dated 2008)
